According to the supplement of paper PMC9015667:
Structures can show the parent of a compound that is named as a salt. Some of the results follow. Repeats are few or missing, and single values can be far off.

What was measured:
Assay in all cases: reduction in cell viability relative to untreated/vehicle; higher = more growth inhibition
Settings in all cases: 200 nM; 72 h
M229P = test system: M229P (parental melanoma line)
M229R = test system: M229R (matched melanoma line resistant to BRAF inhibitors)
M238P = test system: M238P (parental melanoma line)
M238R = test system: M238R (matched melanoma line resistant to BRAF inhibitors)
M249P = test system: M249P (parental melanoma line)
M249R = test system: M249R (matched melanoma line resistant to BRAF inhibitors)
UACC62P = test system: UACC62P (parental melanoma line)
UACC62R = test system: UACC62R (matched melanoma line resistant to BRAF inhibitors)

Measured: reduction in cell viability

O=C(O)/C=C/c1ccc(O)c(O)c1 [Caffeic acid]
< 0%: M229P | M229R | M238P | M238R | M249P | M249R | UACC62P | UACC62R

Clc1cccc(Cl)c1NC1=NCCN1 [Clonidine]
< 0%: M229P | M229R | M238P | M238R | M249P | M249R | UACC62R
0.19%: UACC62P

CC(C)(C)c1cc(NC(=O)Nc2ccc(-c3cn4c(n3)sc3cc(OCCN5CCOCC5)ccc34)cc2)no1 [Quizartinib]
< 0%: M229P | M229R | M238R | UACC62R
30.7%: M249P
8.45%: UACC62P
4.96%: M249R
4.57%: M238P

CCOC(=O)Nc1ccc(NCc2ccc(F)cc2)nc1N [Flupirtine maleate]
< 0%: M229P | M229R | M238P | M238R | M249P | M249R | UACC62P | UACC62R

Two entries drawn at random from those above:
CCOC(=O)Nc1ccc(NCc2ccc(F)cc2)nc1N [Flupirtine maleate]
< 0%: M229P | M229R | M238P | M238R | M249P | M249R | UACC62P | UACC62R

Clc1cccc(Cl)c1NC1=NCCN1 [Clonidine]
< 0%: M229P | M229R | M238P | M238R | M249P | M249R | UACC62R
0.19%: UACC62P

Further entries follow.

CC[C@H](CC#N)OC(=O)N[C@@H](C)c1cccc(NC(=O)Nc2ccc(-c3cnco3)c(OC)c2)c1
34.4%: M249P
28.8%: M238P
18.6%: M238R
16%: UACC62P
8.86%: M229R
49.5%: UACC62R
20.6%: M229P
53%: M249R

COc1ccc2cccc(CCNC(C)=O)c2c1 [Agomelatine]
< 0%: M229P | M229R | M238P | M238R | M249P | M249R | UACC62P | UACC62R

COCCOc1ccc2c(c1)ncn2-c1ccc2cccc(N3CCC(N)CC3)c2n1
< 0%: M229P | M229R | M238P | M238R | M249P | M249R | UACC62P | UACC62R

Oc1cccc(-c2nc(N3CCOCC3)c3oc4ncccc4c3n2)c1
69.5%: M238P
50.5%: UACC62P
60%: M238R
32.5%: UACC62R
38.2%: M249P
30.9%: M249R
38.5%: M229R
20.6%: M229P

CCCC(CCC)C(=O)O [Valproic acid sodium salt]
< 0%: M229P | M229R | M238P | M238R | M249P | M249R | UACC62P | UACC62R

CCCC1O[C@@H]2C[C@H]3[C@@H]4CCC5=CC(=O)C=C[C@]5(C)[C@H]4[C@@H](O)C[C@]3(C)[C@]2(C(=O)CO)O1 (stereo not given in full) [Budesonide]
< 0%: M229P | M229R | M238P | M238R | M249P | M249R | UACC62P | UACC62R

CC(C)(OCc1nn(Cc2ccccc2)c2ccccc12)C(=O)O [Bindarit]
< 0%: M229P | M229R | M238P | M238R | M249P | M249R | UACC62P | UACC62R

O=C1NCCc2[nH]c(-c3ccncc3)cc21
< 0%: M229P | M229R | M238P | M238R | M249P | M249R | UACC62P | UACC62R

Nc1ncn([C@H]2C[C@H](O)[C@@H](CO)O2)c(=O)n1 [Decitabine]
< 0%: M229P | M229R | M238P | M238R | M249P | UACC62P | UACC62R
12.3%: M249R

CC[C@@H]1/C=C(\C)C[C@H](C)C[C@H](OC)[C@H]2O[C@@](O)(C(=O)C(=O)N3CCCC[C@H]3C(=O)O[C@H](/C(C)=C/[C@@H]3CC[C@H](Cl)[C@H](OC)C3)[C@H](C)[C@@H](O)CC1=O)[C@H](C)C[C@@H]2OC [Pimecrolimus]
< 0%: M229P | M229R | M238P | M238R | M249P | M249R | UACC62P | UACC62R

O=C(Nc1ncc(SCCN2CCCC2)s1)[C@]1(c2ccc(S(=O)(=O)C3CC3)cc2)C[C@H]1C1CCCCC1
1.68%: UACC62P
< 0%: M229P | M229R | M238P | M238R | M249P | M249R | UACC62R

CCNC(=O)[C@H]1O[C@@H](n2cnc3c(N)nc(NCCc4ccc(CCC(=O)O)cc4)nc32)[C@H](O)[C@@H]1O
< 0%: M229P | M229R | M238P | M238R | M249P | M249R | UACC62P | UACC62R

CC(=O)N[C@@H](CS)C(=O)O [Acetylcysteine]
< 0%: M229P | M229R | M238P | M238R | M249P | M249R | UACC62P | UACC62R

O=C1N(c2ccccc2)c2ccccc2C1(Cc1ccncc1)Cc1ccncc1 [Linopirdine]
0.07%: UACC62P
< 0%: M229P | M229R | M238P | M238R | M249P | M249R | UACC62R

NS(=O)(=O)c1ccc(NC2=CC(=O)c3ccccc3C2=O)cc1
6.22%: M249R
25.6%: M238R
< 0%: M229P | M229R | M249P
41%: UACC62R
53.2%: M238P
30.3%: UACC62P

COc1cc(Nc2ncc(F)c(Nc3ccc4c(n3)NC(=O)C(C)(C)O4)n2)cc(OC)c1OC
< 0%: M229P | M229R | M238P | M238R | M249P
1.34%: UACC62P
37%: UACC62R
0.07%: M249R
